According to the supplement of paper PMC10849652:
Some of the results follow.

The chains behind the UniProt entries cited, without tags or fusion partners. Where a name states a change or a piece, a line headed by the entry shows the natural chain unless it says otherwise.
UniProt Q96DT6: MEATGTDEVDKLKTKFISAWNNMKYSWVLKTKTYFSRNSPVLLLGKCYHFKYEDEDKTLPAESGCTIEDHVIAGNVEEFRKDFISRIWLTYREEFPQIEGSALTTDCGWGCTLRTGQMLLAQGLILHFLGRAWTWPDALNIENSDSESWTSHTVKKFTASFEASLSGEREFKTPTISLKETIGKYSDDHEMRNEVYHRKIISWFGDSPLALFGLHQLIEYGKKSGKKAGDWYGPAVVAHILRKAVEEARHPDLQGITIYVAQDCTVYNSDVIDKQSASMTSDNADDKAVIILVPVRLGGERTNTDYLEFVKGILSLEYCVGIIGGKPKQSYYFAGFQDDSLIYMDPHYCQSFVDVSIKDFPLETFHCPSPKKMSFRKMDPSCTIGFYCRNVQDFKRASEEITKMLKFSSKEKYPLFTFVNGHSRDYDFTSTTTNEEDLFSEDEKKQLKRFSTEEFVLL
UniProt O75915: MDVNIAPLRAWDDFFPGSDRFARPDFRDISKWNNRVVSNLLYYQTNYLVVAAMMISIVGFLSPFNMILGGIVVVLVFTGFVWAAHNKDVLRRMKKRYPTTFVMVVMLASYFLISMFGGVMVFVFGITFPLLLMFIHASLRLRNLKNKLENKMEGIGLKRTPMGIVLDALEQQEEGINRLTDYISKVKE
UniProt O95260: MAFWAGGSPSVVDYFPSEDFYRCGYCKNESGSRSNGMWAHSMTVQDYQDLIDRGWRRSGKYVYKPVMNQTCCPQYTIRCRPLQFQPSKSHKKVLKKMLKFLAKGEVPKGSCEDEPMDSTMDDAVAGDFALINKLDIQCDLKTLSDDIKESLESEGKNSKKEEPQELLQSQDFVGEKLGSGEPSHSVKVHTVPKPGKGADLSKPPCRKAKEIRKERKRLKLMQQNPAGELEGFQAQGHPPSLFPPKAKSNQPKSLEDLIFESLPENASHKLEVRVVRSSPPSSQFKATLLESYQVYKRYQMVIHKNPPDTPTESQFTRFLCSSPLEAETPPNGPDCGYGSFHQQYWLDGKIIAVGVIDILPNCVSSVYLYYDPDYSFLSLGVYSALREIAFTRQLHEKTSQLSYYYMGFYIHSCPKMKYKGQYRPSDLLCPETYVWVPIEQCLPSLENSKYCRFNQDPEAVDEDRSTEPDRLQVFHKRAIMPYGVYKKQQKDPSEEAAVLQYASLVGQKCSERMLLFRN
UniProt P56378: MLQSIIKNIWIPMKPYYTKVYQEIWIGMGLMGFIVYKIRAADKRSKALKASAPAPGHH
UniProt P27540, whole entry, looked up: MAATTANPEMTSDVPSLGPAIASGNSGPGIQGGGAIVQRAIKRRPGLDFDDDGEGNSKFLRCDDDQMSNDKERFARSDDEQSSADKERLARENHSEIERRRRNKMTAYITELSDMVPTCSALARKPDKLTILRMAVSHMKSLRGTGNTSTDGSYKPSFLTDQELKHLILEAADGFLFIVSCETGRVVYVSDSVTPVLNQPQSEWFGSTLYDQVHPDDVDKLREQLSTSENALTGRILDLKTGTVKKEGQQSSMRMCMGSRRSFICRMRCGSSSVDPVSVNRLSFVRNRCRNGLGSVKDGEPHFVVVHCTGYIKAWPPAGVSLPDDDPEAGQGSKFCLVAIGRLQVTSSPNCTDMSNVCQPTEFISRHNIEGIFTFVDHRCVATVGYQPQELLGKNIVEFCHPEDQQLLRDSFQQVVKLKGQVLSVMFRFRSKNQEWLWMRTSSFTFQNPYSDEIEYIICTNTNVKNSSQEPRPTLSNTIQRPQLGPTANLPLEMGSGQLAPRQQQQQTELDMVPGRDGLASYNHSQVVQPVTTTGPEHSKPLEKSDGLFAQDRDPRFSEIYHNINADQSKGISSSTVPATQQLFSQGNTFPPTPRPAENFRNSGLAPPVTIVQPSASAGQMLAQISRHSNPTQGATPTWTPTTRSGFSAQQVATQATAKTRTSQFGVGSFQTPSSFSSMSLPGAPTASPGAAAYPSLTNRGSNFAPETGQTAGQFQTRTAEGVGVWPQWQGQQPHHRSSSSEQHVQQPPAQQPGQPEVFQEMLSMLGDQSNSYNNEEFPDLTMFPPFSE
UniProt P18859: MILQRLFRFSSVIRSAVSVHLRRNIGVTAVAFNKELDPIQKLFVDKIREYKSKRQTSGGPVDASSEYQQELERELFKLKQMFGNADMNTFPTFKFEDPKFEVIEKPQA
UniProt O95376: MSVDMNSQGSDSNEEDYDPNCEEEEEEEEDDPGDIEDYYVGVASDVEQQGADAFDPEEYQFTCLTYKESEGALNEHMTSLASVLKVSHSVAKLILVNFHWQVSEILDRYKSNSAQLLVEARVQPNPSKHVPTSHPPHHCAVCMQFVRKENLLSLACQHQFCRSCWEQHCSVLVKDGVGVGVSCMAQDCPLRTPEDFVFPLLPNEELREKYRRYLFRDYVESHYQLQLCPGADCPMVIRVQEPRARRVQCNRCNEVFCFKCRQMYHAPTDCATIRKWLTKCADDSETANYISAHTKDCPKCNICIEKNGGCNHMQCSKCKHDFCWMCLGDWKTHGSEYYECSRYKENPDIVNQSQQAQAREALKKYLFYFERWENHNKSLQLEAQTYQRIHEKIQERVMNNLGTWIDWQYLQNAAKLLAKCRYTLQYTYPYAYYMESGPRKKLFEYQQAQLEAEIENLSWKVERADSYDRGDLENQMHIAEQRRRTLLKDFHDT
UniProt P36542: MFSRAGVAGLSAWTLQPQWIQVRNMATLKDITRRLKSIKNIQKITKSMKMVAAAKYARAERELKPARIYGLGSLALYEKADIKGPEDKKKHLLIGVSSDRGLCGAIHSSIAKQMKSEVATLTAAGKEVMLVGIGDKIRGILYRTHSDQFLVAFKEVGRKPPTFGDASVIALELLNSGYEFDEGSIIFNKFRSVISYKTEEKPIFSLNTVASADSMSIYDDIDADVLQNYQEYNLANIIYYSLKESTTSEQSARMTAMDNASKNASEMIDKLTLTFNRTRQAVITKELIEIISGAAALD
UniProt Q9UH62: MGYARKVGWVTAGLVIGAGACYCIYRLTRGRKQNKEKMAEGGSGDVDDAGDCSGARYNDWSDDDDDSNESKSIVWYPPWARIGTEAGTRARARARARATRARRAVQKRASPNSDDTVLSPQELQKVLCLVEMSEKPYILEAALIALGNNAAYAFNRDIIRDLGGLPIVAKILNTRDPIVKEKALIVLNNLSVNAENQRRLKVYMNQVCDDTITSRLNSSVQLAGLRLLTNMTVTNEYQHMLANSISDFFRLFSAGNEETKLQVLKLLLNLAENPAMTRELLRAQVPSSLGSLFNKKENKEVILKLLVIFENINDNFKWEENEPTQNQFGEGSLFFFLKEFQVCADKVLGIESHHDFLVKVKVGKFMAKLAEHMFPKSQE
UniProt Q15041, whole entry, looked up: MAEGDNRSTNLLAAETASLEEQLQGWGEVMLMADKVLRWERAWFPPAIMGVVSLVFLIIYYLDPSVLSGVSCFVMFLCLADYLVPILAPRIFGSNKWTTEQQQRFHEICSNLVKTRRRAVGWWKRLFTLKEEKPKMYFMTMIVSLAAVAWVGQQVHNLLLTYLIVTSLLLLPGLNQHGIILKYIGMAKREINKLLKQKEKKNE
UniProt L0R819, whole entry, looked up: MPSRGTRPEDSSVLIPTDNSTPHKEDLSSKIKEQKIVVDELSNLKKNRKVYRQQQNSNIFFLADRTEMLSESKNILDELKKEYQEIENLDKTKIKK
UniProt O94817, whole entry, looked up: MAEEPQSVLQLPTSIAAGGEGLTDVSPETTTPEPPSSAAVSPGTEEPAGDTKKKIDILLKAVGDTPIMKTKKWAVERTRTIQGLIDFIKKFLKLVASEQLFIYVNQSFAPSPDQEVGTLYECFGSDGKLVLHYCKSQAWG
UniProt O43681: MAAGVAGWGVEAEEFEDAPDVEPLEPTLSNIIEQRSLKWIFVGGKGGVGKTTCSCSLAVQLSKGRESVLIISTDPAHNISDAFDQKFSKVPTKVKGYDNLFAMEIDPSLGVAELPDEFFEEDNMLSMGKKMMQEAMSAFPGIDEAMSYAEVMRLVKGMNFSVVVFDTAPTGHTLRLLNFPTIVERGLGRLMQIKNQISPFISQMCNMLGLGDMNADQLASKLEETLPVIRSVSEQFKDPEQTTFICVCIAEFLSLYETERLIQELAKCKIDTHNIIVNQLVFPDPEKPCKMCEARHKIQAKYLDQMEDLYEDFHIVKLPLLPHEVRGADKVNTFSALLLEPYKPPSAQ
UniProt O75947: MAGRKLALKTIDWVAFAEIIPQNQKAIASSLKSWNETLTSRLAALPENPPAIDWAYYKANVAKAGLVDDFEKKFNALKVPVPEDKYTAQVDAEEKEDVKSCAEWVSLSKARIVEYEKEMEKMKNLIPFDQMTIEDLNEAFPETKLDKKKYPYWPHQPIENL
UniProt O95671: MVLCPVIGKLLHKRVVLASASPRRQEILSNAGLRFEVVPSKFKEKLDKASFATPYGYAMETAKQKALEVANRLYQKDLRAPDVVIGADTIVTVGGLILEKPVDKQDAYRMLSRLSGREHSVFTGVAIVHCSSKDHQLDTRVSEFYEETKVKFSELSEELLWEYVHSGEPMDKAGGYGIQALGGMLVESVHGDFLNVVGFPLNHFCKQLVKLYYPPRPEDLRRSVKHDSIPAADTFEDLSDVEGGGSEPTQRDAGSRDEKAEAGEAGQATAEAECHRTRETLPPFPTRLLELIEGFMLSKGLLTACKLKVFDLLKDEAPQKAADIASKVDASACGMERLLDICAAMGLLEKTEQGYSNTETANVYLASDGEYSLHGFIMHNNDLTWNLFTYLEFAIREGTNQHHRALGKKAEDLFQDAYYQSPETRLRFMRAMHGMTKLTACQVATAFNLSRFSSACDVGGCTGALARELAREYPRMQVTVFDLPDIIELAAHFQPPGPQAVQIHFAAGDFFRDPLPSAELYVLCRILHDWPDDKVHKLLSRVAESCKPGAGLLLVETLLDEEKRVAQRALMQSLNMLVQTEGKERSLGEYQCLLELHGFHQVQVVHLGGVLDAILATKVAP
UniProt P54259: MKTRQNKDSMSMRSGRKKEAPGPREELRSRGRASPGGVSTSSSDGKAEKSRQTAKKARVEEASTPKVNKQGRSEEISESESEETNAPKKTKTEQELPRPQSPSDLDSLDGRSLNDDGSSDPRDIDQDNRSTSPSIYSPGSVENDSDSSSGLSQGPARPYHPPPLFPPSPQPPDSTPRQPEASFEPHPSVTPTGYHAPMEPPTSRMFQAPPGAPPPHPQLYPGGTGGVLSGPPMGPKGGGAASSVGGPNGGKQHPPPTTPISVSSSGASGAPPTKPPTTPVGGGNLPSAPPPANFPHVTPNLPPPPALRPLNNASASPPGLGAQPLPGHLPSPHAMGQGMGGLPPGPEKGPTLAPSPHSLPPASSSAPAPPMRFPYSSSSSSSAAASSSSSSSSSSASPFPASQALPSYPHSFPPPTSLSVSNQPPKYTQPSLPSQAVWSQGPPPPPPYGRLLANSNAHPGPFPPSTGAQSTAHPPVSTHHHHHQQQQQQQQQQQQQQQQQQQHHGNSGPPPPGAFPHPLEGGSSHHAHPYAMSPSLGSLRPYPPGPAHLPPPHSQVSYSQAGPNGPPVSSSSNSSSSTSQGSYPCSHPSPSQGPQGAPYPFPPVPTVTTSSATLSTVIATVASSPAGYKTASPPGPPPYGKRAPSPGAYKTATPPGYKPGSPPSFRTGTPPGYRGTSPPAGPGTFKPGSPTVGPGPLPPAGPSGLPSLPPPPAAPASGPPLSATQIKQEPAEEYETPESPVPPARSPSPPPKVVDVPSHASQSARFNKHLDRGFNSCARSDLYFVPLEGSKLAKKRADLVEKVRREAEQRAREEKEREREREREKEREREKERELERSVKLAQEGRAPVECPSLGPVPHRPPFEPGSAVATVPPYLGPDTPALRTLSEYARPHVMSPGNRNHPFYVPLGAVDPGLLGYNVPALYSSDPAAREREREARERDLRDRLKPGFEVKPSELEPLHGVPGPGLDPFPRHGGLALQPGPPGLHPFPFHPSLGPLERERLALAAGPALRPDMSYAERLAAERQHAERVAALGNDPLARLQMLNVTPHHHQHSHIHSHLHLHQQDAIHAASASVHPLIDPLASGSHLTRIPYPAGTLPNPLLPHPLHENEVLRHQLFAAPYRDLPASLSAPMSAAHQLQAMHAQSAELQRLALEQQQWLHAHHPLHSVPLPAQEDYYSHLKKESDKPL
UniProt P36404: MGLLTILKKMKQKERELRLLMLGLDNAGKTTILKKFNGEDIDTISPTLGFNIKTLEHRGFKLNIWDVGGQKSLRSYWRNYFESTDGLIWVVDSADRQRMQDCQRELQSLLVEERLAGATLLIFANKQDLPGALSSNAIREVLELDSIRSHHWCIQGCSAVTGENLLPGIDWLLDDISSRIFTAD
UniProt P61421, whole entry, looked up: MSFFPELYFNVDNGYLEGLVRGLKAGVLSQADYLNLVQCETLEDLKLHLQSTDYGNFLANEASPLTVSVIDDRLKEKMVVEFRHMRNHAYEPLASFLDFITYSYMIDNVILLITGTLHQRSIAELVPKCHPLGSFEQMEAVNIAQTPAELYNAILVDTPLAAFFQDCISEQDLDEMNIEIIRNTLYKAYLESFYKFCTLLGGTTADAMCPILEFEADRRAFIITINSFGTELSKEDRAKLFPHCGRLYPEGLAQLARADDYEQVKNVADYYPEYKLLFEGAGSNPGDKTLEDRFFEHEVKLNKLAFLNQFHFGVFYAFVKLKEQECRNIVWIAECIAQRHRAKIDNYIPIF

Compound: C[C@H](C1=CC=C(C=C1)C(=O)NC2=C3C=CNC3=NC=C2)N
Test: log2 fold change, soluble protein after heating vs DMSO (PISA); higher = thermal stabilisation; K562 cells, 10 uM, 30 min; active = over 0.2 and 3.5 SD of the protein, either way, in both replicates (recomputed)
How it was run: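 For each measurement, 10 μM compound was applied for 30 min to K562 cells at 2×10^6 cells/mL. Aliquots were heated for 3 min across 48°C-58°C, pooled, and extracted in PBS with 0.5% NP-40 at 4°C; the supernatant after 21,000xg for 90 min was soluble protein. This was quantified by TMTpro 16plex LC-MS/MS with channel sums equalised, and thermal stability was reported relative to control samples from duplicates, on a log2 fold-change scale.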

log2 fold change, inactive:
ATG4C (UniProt Q96DT6) -0.061
ARL6IP5 (UniProt O75915) -0.066
ATE1 isoform 2 (UniProt O95260) 0.026
ATP5MPL (UniProt P56378) -0.135
ATP13A1 (UniProt Q9HD20) -0.072
ARNT (UniProt P27540) 0.017
ATP5PF isoform 2 (UniProt P18859) -0.134
ATP2A2 (UniProt P16615) -0.059
ARIH2 (UniProt O95376) -0.104
ATP7A isoform 3 (UniProt Q04656) -0.052
ATP5F1C (UniProt P36542) -0.006
ARMCX3 (UniProt Q9UH62) 0.169
ARL6IP1 (UniProt Q15041) -0.042
ASDURF (UniProt L0R819) -0.02
ATG12 (UniProt O94817) -0.045
ASNA1 (UniProt O43681) 0.001
ATP5PD (UniProt O75947) -0.097
ASMTL (UniProt O95671) 0.089
ATN1 (UniProt P54259) 0.015
ARL2 (UniProt P36404) -0.027
ASAP1 isoform 2 (UniProt Q9ULH1) -0.015
ATP6V0D1 (UniProt P61421) 0.091

Retrieved one by one from above, two records:
log2 fold change, inactive:
ASDURF (UniProt L0R819) -0.02
ATP5PF isoform 2 (UniProt P18859) -0.134
